The supplement of paper PMC6411743
± gives the standard deviation of the averaged measurements. The list shows a part of the results, in another mix than the full data. Small differences around the control level are noise.

Sequences of proteins named here, by UniProt entry; tags and fusion partners are left off. A change or cut given only in a name is not applied to a line headed by its entry.
UniProt Q15853: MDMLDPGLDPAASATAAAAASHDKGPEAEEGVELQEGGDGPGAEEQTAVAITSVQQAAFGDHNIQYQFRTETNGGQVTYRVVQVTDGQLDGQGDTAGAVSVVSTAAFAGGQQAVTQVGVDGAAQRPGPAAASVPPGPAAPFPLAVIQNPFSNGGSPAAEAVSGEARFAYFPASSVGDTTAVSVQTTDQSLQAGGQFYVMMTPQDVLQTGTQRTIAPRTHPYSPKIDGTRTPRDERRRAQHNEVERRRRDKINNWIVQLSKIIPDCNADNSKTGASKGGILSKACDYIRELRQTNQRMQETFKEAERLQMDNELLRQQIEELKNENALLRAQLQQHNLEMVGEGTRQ
UniProt Q12979: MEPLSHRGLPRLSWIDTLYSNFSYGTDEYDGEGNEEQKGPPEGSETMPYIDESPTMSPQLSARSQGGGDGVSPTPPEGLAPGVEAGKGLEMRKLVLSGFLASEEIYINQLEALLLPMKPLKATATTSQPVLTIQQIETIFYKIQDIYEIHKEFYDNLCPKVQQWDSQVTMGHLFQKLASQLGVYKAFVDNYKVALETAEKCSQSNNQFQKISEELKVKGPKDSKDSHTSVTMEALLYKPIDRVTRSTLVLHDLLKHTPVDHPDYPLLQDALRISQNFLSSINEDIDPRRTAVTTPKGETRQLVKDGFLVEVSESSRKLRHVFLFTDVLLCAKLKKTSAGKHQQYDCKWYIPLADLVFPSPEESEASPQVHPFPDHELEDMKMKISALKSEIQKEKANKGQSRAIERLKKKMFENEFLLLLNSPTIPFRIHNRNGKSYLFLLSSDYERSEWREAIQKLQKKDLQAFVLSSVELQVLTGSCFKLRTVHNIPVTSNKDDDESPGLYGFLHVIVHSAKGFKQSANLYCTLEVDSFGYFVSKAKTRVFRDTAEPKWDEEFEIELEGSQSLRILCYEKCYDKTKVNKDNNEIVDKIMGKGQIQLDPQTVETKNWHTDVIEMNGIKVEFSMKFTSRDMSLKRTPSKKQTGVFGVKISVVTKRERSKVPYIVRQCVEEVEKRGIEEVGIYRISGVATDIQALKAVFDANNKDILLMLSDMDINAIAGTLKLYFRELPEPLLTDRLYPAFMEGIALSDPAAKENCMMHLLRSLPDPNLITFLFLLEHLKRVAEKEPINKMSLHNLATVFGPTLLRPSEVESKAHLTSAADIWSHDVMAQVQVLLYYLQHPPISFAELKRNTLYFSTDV
UniProt Q5BKZ1: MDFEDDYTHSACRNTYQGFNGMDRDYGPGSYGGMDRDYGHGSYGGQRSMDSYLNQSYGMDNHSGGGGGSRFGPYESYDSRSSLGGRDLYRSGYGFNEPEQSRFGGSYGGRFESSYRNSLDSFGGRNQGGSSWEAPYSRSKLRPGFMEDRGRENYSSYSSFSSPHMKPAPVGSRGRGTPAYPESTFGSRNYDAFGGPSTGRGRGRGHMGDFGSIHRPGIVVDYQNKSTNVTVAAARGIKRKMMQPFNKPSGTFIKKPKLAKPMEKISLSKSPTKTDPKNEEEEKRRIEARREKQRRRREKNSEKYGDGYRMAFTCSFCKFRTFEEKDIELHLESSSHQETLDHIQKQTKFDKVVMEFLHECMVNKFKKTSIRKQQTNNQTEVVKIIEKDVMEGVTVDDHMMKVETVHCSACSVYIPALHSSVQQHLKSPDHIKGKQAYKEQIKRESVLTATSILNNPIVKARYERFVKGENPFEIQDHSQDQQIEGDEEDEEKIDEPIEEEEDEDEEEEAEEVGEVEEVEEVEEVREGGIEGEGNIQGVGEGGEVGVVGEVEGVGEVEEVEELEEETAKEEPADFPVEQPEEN
UniProt O14727: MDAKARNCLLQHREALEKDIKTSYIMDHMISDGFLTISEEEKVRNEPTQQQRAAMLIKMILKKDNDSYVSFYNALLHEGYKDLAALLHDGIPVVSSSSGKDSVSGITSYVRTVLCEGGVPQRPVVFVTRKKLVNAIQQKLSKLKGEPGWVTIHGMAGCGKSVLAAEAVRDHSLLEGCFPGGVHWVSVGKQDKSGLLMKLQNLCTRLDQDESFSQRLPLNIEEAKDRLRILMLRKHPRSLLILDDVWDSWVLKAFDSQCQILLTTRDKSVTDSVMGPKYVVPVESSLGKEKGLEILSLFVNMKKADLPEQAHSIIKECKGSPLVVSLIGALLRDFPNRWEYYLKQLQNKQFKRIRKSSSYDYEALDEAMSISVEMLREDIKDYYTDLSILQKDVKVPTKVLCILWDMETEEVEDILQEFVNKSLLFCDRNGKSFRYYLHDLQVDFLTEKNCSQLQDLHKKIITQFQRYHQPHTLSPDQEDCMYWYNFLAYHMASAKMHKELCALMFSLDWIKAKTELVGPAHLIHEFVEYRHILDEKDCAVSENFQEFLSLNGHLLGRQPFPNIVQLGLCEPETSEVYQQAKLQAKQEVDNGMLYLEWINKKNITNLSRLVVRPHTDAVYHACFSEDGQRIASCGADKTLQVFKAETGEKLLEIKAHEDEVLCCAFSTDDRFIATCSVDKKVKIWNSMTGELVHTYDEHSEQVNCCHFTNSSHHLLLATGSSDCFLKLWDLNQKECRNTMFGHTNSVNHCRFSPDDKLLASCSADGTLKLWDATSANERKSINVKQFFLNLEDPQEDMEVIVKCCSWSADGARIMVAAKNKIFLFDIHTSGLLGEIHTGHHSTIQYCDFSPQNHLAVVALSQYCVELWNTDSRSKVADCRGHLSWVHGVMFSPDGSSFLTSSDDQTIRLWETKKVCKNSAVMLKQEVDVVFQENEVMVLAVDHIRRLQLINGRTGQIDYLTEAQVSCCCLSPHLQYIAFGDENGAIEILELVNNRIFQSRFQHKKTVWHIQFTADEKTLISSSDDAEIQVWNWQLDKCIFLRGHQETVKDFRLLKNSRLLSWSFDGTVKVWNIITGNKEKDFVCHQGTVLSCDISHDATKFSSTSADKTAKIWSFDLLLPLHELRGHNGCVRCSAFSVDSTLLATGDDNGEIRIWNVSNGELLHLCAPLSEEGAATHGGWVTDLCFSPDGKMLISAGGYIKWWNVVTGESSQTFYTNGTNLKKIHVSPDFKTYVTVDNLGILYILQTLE
UniProt A6NED2: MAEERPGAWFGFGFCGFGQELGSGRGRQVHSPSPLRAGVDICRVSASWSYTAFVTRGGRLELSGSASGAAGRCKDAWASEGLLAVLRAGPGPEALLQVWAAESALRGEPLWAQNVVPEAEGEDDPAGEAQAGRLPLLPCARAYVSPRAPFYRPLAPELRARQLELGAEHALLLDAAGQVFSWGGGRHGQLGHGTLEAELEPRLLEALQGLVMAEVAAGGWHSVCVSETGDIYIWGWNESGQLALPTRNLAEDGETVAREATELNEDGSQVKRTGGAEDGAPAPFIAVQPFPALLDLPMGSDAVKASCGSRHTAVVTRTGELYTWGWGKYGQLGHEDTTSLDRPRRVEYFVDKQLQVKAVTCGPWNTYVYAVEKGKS
UniProt Q9Y6E0: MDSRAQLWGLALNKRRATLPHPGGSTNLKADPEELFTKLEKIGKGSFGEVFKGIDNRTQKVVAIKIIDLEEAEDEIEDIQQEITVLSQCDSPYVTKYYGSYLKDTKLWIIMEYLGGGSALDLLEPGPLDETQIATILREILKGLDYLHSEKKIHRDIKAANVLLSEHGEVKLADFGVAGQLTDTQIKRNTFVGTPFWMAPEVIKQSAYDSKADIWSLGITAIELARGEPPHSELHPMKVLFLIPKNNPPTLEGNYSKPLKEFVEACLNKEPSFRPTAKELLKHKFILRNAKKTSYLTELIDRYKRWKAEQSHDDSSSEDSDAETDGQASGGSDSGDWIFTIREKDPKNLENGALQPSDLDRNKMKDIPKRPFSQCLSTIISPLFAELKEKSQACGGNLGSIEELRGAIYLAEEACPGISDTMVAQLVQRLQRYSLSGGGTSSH
UniProt P35222, whole entry: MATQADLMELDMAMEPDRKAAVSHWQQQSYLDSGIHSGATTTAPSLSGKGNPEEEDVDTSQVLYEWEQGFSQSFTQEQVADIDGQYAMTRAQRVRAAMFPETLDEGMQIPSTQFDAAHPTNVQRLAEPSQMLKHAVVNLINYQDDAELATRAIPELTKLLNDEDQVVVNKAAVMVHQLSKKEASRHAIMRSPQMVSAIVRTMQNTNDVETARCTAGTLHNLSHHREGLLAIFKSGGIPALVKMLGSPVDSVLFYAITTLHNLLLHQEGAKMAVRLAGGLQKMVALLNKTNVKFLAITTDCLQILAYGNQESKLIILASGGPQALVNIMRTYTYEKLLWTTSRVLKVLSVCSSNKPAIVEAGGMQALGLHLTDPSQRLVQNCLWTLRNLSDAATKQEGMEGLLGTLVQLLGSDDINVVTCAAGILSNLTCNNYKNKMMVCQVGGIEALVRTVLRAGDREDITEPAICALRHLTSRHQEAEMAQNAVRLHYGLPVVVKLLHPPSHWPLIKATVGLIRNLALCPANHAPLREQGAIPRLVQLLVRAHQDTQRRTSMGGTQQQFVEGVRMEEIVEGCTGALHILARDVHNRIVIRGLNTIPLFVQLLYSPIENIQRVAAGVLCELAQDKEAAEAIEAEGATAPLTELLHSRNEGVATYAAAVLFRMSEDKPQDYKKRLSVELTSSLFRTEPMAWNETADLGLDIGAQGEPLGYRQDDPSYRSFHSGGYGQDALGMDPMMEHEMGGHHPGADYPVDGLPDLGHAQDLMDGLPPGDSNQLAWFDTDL
UniProt P42892: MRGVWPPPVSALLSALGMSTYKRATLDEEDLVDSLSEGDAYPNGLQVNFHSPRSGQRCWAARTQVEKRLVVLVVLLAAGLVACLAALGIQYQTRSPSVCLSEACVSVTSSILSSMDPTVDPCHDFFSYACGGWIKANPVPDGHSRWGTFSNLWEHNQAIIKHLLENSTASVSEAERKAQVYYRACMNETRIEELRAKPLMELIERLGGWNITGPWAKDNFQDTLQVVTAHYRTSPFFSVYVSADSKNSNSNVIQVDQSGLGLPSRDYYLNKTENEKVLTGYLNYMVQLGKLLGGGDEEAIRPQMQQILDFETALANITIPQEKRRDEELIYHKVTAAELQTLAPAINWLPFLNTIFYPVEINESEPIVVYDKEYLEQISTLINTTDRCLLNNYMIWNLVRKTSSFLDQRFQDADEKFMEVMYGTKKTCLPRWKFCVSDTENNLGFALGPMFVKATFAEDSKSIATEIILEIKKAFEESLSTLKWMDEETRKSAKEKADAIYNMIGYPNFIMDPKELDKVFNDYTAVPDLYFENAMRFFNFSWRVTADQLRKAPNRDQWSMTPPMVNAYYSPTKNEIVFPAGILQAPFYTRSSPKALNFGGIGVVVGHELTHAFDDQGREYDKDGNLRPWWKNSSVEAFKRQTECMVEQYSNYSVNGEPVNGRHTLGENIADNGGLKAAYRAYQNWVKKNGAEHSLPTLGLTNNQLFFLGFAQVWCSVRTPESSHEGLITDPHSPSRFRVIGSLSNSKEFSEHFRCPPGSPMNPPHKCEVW
UniProt A4D161: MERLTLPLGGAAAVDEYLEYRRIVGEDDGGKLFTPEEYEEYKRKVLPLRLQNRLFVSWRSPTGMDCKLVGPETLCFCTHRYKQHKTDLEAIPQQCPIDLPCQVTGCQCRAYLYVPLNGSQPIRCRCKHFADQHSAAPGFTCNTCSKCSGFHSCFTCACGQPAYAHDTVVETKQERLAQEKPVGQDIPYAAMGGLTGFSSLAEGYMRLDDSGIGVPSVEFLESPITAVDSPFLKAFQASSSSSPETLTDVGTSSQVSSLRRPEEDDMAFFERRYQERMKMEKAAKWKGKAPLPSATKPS
UniProt P62873, whole entry: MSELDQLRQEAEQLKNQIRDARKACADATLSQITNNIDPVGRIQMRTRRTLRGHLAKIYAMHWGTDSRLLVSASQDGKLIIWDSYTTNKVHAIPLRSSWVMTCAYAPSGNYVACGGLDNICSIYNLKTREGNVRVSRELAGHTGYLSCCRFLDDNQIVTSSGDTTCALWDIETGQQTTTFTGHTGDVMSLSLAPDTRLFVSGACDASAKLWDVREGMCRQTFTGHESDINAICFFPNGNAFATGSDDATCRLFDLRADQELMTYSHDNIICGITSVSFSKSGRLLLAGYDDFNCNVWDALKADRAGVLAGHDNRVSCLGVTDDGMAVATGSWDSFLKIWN
UniProt Q8WVV9: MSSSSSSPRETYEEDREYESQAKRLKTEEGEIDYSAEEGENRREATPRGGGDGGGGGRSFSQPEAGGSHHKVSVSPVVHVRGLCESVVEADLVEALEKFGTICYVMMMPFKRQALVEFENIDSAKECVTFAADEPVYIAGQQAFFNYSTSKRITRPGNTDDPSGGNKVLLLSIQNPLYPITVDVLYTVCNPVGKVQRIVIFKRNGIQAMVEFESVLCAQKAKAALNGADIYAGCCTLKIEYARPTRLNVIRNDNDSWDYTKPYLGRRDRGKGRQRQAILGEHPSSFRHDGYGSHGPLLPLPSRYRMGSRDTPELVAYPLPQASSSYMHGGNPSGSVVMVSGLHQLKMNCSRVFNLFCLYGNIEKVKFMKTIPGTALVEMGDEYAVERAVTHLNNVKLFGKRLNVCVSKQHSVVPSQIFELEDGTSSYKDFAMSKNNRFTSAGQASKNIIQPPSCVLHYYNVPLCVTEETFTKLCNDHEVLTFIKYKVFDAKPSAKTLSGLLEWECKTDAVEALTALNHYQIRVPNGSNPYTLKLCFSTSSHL

Each target was assayed with Nc1ncnc2c1ncn2[C@@H]1O[C@H](COP(=O)(O)OP(=O)(O)NP(=O)(O)O)[C@@H](O)[C@H]1O [adenylyl imidodiphosphate] (assay: NP40-soluble protein abundance relative to vehicle (solubility fold change) (ratio); higher = more soluble protein in presence of AMP-PNP). Conditions: concentration: 0.1mM.
Summary of the method: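 In three independent experiments, Jurkat crude lysate made by Dounce homogenisation was treated for 10 min at room temperature and then 3 min at 37 °C with eight concentrations ranging from 0.1 to 10 mM. It was then solubilised with 0.8% NP40 plus benzonase for 60 min at 4 °C and ultracentrifuged. The supernatant was TMT-labelled for LC-MS/MS, and each value is the fold change against the detergent-processed vehicle for the same replicate, using vsn-normalised intensities.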
Work on “A8K7Q2 and related entries (UniProt P11142)” yielded an NP40-soluble protein abundance of 0.995 ± 0.022.
“C9JEH3 and related entries (UniProt Q13685)” gave an NP40-soluble protein abundance of 1.03 ± 0.028.
With “A6PW57 and related entries (UniProt Q99755)” the NP40-soluble protein abundance was 1.03 ± 0.016.
“B4DLJ1 and related entries (UniProt Q15853)” gave an NP40-soluble protein abundance of 0.996 ± 0.053.
With “B7Z683 and related entries (UniProt Q12979)” the NP40-soluble protein abundance was 1.02 ± 0.022.
In the case of “E2QRN4 and related entries (UniProt Q5BKZ1)”, the NP40-soluble protein abundance is reported as 1.05 ± 0.073.
For “B7WPL9 and related entries (UniProt Q6PFW1)”, the NP40-soluble protein abundance was 1 ± 0.011.
With “C9JLV4 and related entries (UniProt O14727)” the NP40-soluble protein abundance was 0.997 ± 0.055.
RCCD1 (UniProt A6NED2) gave an NP40-soluble protein abundance of 1.02 ± 0.077.
“B4DR80 and related entries (UniProt Q9Y6E0)” was tested, and the NP40-soluble protein abundance was 0.967 ± 0.028.
“B4DGU4 and related entries (UniProt P35222)” showed an NP40-soluble protein abundance of 0.97 ± 0.043.
“B4DKB2 and related entries (UniProt P42892)” gave an NP40-soluble protein abundance of 1.02 ± 0.028.
Target “B1AH77 and related entries (UniProt P15153)” has an NP40-soluble protein abundance of 1.3 ± 0.39.
Target UniProt A4D161 and related entries has an NP40-soluble protein abundance of 0.975 ± 0.012.
Work on “B3KVK2 and related entries (UniProt P62873)” yielded an NP40-soluble protein abundance of 0.997 ± 0.061.
With “B7ZBM8 and related entries (UniProt O14662)” the NP40-soluble protein abundance was 0.968 ± 0.038.
With “C9JIZ6 and related entries (UniProt P07602)” the NP40-soluble protein abundance was 0.952 ± 0.029.
“C9IYN3 and related entries (UniProt Q8WVV9+D6W592+C9IYN3)” showed an NP40-soluble protein abundance of 1 ± 0.018.
